PubChem BioAssay AID504764, Drosophila RNAi Screening Center – 2011

Screen: 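Genome-wide screen for regulators of Notch-driven gene expression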 (primary screen)
Cell system: Drosophila Kc167 cells
Reagent: long dsRNA against Drosophila genes
Time to read-out: about 5 days (4 days dsRNA, then 24 h after transfection)
Challenge: transfection of constitutively active membrane-tethered Notch lacking the extracellular domain, read 24 h later
Measured: 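Light from a Notch-responsive E(spl)m3 luciferase reporter under active Notch, with control-promoter and no-Notch reporter wells to normalise; raw counts from paired wells a and b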
Reading the numbers: induced reporter light, run 1, well a and induced reporter light, run 1, well b: higher = more light from the Notch target reporter with active Notch; control promoter light, run 1, well a and control promoter light, run 1, well b: higher = more light from the viral control promoter (cell number, transfection, viability); uninduced reporter light, run 1, well a: higher = more light from the Notch target reporter without active Notch
Hit rule: 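Hit if the duplicate-averaged log2 ratio of induced to control-promoter light gives a plate-wise z beyond ±2, or induced to uninduced beyond ±1.8; weak-control or discordant-duplicate wells dropped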
Calls: active = modifier hit (raised or lowered Notch signal); inactive = not a hit
In all, the deposit lists about 22,000 reagents; below is a random part of those with a known target gene and a result. In the full data, 403 (1.9%) are marked active. 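Unnormalised raw counts per well; ratio z-scores behind the hit calls and whether each hit raises or lowers signal are not deposited.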 Reagents against one gene are numbered here. Names joined by + are all predicted targets of the reagent. Not stated in the record: the amount of reagent.

gene knocked down	reagent no.	induced reporter light, run 1, well a	induced reporter light, run 1, well b	control promoter light, run 1, well a	control promoter light, run 1, well b	uninduced reporter light, run 1, well a	activity call
CG8726	1	1.68e5	1.46e5	1.57e5	1.34e5	15395	inactive
CG14445	1	1.38e5	1.40e5	2.18e5	2.28e5	11040	inactive
CG17049 (retired record)	1	88340	74610	85000	91745	7625	inactive
CG4306	1	2.63e5	2.08e5	2.48e5	2.18e5	9370	inactive
Golgin245 (Golgin-245)	1	81680	83180	70130	69515	6442	inactive
Dhx15 (DEAH-box helicase 15)	1	1.43e5	1.75e5	1.22e5	1.28e5	13415	active
CG42673	1	1.64e5	1.51e5	1.49e5	1.51e5	12265	inactive
CG42673	2	3990	3345	3770	3530	3645	inactive
CG42673	3	1.23e5	1.16e5	2.21e5	1.97e5	6270	inactive
CG42673	4	1.42e5	1.49e5	2.08e5	1.59e5	8900	inactive
CG42673	5	2.69e5	1.87e5	2.93e5	2.45e5	11705	inactive
CG42673	6	1.75e5	1.43e5	2.02e5	2.12e5	8745	inactive
Spec2 (retired record)	1	55495	42445	47995	45665	4610	inactive
Dap160 (Dynamin associated protein 160)	1	1.22e5	1.28e5	83645	98025	9115	inactive
Pten (Phosphatase and tensin homolog)	1	1.58e5	1.82e5	1.02e5	1.36e5	24395	inactive
CG6830	1	53585	74225	75640	56785	5285	inactive

2 entries from above, ordered by “induced reporter light, run 1, well b”, low to high.
gene knocked down	reagent no.	induced reporter light, run 1, well a	induced reporter light, run 1, well b	control promoter light, run 1, well a	control promoter light, run 1, well b	uninduced reporter light, run 1, well a	activity call
Golgin245 (Golgin-245)	1	81680	83180	70130	69515	6442	inactive
CG4306	1	2.63e5	2.08e5	2.48e5	2.18e5	9370	inactive

Continued.
gene knocked down	reagent no.	induced reporter light, run 1, well a	induced reporter light, run 1, well b	control promoter light, run 1, well a	control promoter light, run 1, well b	uninduced reporter light, run 1, well a	activity call
CG42404	1	1.93e5	2.00e5	94455	1.04e5	18642	active
ec (echinus)	1	61770	66505	1.01e5	1.07e5	6295	inactive
ec (echinus)	2	66790	78250	77605	76260	7165	inactive
ec (echinus)	3	1.76e5	1.80e5	4.03e5	2.89e5	14510	inactive
Egfr (Epidermal growth factor receptor)	1	91710	88335	73480	88025	10270	inactive
Egfr (Epidermal growth factor receptor)	2	1.80e5	2.27e5	1.83e5	1.69e5	14965	inactive
Elovl7 (ELOVL fatty acid elongase 7)	1	72760	97585	71215	62280	5595	inactive
Lipt2 (Lipoyl(octanoyl) transferase 2)	1	1.03e5	1.69e5	81725	96255	9015	inactive
His2Av (Histone H2A variant)	1	1.12e5	1.10e5	1.96e5	1.72e5	8038	inactive
nero	1	1.41e5	1.52e5	2.04e5	2.19e5	10440	inactive
CG18735	1	67855	53820	50410	50950	2070	inactive
l(2)k01209 (lethal (2) k01209)	1	1.08e5	85925	1.04e5	1.09e5	10375	inactive
ctrip (circadian trip)	1	1.13e5	94275	1.30e5	1.37e5	6855	inactive
ctrip (circadian trip)	2	1.29e5	1.40e5	1.18e5	1.19e5	8675	inactive
ND-PDSW (NADH dehydrogenase (ubiquinone) PDSW subunit)	1	1.25e5	1.07e5	1.14e5	1.29e5	11010	inactive
CG13928	1	1.68e5	1.20e5	2.09e5	2.16e5	7475	inactive
shu (shutdown)	1	2.51e5	2.57e5	2.11e5	2.36e5	15935	inactive
Arpc1 (Actin-related protein 2/3 complex, subunit 1)	1	2.07e5	2.12e5	1.61e5	1.60e5	15460	inactive
CG5968	1	1.95e5	2.16e5	2.74e5	3.18e5	17145	inactive
Ppt2 (Palmitoyl-protein Thioesterase 2)	1	2.06e5	2.36e5	1.94e5	2.15e5	15842	inactive
Pym (Partner of Y14 and Mago)	1						inactive
sub (subito)	1	64595	70365	1.45e5	1.56e5	7495	inactive
CG16852	1	1.27e5	1.54e5	1.44e5	1.46e5	11180	inactive
Agxt (Alanine-glyoxylate aminotransferase)	1	2.06e5	1.81e5	2.51e5	2.27e5	13765	inactive
CG15711	1	1.46e5	96450	1.24e5	1.36e5	10995	inactive
Mdr49 (Multi drug resistance 49)	1	67535	62530	54325	60250	5190	inactive
CG42502 + CG10570	1	2.82e5	2.25e5	3.08e5	2.86e5	20085	inactive
CG13014	1	72650	42015	67790	59960	8710	inactive
Wee1 (Wee1 kinase)	1	1.53e5	1.52e5	1.76e5	2.21e5	10405	inactive
hale (hale-bopp)	1	1.43e5	1.34e5	1.38e5	1.37e5	8375	inactive
Prosalpha6T (Proteasome alpha6 subunit, Testis-specific)	1	1.71e5	1.73e5	1.80e5	1.74e5	16110	inactive
Ork1 (Open rectifier K[+] channel 1)	1	1.81e5	1.51e5	2.30e5	2.08e5	11595	inactive
Or82a (Odorant receptor 82a)	1	2.02e5	2.08e5	2.87e5	2.83e5	21680	active
CG4467	1	1.57e5	1.75e5	1.92e5	2.16e5	12250	inactive
